Test results taken from the supplement of paper PMC10849652.
Some of the results follow.

Protein sequences, listed by entry. Tags and fused reporters are not part of them. Lines headed by an entry give the natural chain unless they say otherwise; changes in a name come on top.
UniProt O95671: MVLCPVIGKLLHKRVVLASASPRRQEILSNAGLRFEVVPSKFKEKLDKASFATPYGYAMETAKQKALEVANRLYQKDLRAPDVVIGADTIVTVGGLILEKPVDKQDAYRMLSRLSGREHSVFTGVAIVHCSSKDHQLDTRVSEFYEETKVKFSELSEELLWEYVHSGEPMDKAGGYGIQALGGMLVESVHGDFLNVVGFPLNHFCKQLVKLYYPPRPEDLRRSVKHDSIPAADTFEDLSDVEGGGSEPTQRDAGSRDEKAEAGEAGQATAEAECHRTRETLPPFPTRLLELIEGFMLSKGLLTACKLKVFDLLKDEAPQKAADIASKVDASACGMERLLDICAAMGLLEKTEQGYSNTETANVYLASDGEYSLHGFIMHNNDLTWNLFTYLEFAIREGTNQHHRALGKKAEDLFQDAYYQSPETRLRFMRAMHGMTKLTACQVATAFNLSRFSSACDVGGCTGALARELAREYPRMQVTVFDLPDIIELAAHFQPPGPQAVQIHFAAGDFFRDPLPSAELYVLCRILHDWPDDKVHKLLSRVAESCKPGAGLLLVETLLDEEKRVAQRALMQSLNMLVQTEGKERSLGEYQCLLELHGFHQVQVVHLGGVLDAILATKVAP
UniProt Q8WYN0: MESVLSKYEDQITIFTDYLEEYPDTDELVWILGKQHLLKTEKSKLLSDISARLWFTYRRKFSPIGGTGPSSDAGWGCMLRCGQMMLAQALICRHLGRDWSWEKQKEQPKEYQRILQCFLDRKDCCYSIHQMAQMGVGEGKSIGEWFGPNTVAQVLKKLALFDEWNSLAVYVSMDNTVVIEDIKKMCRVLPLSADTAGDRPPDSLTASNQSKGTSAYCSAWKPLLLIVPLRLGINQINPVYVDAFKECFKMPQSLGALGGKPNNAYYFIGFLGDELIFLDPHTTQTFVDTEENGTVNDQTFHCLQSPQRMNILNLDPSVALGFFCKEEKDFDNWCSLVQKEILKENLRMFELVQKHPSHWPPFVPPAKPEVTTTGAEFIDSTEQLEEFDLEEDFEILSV
UniProt Q9H0Y0: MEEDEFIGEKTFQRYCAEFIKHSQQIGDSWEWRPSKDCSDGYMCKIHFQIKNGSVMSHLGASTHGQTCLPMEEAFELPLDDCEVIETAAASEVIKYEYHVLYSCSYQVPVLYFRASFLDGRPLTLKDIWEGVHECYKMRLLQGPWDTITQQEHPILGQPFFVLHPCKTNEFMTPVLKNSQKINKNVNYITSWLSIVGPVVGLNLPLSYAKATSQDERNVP
UniProt Q8N3C0, whole entry, looked up: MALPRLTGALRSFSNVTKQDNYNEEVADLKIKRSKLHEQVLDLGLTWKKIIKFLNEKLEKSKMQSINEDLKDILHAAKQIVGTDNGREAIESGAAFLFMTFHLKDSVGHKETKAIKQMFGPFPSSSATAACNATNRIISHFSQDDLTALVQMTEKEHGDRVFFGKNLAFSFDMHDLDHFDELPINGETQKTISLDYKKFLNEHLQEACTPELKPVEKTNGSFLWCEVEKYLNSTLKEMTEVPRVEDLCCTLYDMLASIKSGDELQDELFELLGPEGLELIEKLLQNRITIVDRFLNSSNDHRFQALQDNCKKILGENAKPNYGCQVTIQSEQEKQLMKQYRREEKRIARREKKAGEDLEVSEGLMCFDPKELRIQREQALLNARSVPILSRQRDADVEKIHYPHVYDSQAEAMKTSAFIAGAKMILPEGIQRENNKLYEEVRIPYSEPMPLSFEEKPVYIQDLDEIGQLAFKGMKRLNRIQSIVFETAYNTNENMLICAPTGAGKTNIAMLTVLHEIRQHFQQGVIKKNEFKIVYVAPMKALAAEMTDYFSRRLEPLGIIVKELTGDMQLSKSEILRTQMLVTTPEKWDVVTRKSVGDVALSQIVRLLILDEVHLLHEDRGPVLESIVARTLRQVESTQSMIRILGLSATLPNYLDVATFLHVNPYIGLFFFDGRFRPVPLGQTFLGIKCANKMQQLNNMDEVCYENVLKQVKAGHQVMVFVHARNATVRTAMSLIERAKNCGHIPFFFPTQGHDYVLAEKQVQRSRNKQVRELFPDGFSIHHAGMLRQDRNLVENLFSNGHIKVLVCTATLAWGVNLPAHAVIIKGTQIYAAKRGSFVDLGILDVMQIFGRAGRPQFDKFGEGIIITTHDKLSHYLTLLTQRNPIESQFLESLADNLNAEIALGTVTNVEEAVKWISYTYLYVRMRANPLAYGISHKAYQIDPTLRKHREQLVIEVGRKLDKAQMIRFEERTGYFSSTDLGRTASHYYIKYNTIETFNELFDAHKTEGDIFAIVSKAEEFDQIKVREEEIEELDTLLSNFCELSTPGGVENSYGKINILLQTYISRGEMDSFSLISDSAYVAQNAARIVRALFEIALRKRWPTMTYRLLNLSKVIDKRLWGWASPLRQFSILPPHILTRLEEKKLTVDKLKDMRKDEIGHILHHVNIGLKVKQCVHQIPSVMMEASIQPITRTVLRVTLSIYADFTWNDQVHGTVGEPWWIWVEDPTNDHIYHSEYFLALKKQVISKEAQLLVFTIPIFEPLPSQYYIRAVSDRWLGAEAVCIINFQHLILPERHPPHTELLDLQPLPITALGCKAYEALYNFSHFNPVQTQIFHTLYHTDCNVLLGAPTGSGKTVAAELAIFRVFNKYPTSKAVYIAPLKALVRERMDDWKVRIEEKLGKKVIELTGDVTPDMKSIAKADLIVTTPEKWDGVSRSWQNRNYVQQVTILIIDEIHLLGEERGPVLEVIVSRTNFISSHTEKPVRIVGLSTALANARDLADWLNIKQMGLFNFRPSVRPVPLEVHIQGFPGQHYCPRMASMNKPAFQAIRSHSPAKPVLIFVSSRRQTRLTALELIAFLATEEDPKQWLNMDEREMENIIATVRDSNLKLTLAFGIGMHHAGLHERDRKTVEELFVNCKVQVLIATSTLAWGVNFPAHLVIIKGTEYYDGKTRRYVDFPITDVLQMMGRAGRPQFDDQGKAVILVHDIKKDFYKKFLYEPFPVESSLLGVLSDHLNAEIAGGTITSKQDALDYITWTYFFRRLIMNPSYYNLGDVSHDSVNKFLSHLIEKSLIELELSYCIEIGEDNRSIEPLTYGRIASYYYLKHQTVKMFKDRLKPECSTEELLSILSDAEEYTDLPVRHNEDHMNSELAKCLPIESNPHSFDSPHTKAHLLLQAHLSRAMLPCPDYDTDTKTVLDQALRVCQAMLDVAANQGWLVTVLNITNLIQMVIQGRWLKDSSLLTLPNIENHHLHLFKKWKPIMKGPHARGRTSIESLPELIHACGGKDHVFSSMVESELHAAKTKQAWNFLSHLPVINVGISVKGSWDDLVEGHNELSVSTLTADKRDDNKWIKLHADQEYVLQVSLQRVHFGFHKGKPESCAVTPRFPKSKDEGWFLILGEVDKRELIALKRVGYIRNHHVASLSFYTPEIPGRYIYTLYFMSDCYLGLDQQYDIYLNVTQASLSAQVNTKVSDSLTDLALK
UniProt O75947: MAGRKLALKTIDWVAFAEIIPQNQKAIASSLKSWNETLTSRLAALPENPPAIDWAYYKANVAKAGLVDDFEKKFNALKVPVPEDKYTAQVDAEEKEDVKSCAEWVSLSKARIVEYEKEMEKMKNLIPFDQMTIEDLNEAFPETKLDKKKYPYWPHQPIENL
UniProt Q9Y487, whole entry, looked up: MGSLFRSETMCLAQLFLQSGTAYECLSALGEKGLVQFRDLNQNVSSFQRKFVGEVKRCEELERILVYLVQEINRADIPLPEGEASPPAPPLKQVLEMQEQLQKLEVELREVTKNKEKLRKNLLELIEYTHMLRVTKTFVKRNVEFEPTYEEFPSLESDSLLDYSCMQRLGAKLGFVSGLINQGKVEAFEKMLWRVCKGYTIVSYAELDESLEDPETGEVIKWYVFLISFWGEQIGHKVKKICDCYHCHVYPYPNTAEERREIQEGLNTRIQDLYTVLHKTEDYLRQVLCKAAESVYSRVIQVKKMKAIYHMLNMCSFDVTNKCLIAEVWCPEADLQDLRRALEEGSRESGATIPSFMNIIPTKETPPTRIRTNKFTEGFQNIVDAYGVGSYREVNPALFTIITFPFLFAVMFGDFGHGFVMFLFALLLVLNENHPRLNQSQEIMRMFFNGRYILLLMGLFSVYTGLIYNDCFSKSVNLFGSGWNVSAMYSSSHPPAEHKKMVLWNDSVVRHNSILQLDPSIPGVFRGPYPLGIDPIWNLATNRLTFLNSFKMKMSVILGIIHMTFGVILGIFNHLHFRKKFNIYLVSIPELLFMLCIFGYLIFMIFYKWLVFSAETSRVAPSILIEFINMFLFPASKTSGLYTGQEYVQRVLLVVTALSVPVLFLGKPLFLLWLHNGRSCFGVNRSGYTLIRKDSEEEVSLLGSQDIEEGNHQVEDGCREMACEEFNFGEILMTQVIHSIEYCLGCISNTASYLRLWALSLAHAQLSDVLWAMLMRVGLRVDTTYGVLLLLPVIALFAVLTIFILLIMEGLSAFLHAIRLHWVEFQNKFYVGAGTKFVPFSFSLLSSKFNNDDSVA
UniProt P24539: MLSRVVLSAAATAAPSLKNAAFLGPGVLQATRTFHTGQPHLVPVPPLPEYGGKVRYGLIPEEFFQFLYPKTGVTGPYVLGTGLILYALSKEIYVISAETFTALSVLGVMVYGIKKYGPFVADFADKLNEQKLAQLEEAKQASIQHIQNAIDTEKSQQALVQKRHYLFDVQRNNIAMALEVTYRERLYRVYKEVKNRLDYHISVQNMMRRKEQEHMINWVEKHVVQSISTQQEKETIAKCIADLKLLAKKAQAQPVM
UniProt P15336: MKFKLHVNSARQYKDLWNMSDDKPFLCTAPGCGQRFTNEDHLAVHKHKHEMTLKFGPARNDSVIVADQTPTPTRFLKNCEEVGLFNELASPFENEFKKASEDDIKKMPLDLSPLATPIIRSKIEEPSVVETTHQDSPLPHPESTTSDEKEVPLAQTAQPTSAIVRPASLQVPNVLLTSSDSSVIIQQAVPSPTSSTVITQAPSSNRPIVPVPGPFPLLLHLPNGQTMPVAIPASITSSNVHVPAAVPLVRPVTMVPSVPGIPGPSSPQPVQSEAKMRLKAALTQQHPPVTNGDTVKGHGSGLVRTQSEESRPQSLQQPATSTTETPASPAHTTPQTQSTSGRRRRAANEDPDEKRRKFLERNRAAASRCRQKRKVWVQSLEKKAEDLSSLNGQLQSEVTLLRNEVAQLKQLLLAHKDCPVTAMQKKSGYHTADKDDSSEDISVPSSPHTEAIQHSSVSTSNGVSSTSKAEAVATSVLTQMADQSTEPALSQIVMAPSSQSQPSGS
UniProt Q5T9A4: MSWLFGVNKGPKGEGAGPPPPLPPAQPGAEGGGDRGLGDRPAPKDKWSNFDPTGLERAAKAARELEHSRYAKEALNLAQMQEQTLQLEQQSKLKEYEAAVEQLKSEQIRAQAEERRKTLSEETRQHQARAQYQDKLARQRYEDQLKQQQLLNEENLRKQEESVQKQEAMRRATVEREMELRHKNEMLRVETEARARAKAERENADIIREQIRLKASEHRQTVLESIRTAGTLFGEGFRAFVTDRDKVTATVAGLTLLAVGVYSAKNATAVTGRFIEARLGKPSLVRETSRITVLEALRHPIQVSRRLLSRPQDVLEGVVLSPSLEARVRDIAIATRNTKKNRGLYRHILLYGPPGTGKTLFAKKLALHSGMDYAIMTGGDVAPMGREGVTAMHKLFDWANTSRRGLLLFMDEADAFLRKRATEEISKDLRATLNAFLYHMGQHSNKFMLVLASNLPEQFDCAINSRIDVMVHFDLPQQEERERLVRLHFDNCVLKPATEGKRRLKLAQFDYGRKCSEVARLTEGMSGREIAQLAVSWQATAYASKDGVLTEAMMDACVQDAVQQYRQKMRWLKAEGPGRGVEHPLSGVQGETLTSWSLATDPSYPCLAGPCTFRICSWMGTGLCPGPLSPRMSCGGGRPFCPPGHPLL
UniProt Q9BZE9, whole entry, looked up: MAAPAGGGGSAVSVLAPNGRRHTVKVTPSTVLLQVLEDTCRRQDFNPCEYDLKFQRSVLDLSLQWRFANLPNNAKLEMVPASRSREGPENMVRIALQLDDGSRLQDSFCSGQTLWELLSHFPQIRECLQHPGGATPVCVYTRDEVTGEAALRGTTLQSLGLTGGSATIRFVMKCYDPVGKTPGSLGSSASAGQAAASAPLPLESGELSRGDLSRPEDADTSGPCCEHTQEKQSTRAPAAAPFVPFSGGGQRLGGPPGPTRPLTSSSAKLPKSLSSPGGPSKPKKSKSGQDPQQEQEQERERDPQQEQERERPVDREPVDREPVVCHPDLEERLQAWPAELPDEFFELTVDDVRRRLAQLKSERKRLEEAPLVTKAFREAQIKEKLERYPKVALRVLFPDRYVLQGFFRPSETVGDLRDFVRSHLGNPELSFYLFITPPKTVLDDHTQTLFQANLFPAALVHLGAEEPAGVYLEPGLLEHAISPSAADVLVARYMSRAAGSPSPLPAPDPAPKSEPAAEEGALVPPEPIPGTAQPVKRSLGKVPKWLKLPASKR
UniProt Q06055: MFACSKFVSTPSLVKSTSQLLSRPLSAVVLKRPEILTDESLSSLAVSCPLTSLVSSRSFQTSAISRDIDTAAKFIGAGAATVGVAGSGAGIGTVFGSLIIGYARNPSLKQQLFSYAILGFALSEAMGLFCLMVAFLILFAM

Key:
Test in all cases: log2 fold change, soluble protein after heating vs DMSO (PISA); higher = thermal stabilisation; K562 lysate, 10 uM; active = over 0.2 and 3.5 SD of the protein, either way, in both replicates (recomputed)
[1] = compound: C1=CC=C(C=C1)[C@H](COC2=CC3=C(C=C2)NC(=O)N3)NC(=O)C4=CC=CN(C4=O)CC5=CC(=C(C=C5)F)F
Procedure, shortened: (§1)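 Pellets of K562 cells were dounce-homogenised in PBS pH 7.4 with 1 mM MgCl2, and the crude extract was held at 1 mg/mL protein for a 30 min treatment with 10 μM compound. Aliquots were heated for 3 min over 48°C-58°C and pooled before NP-40 was added to 0.5% at 4°C. The supernatant from 21,000xg for 90 min was quantified by TMTpro 16plex LC-MS/MS with channel sums equalised. Values are reported from duplicates as log-two fold change in thermal stability relative to solvent controls.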

[2] = compound: CC1=C(SC2=C1C(=N[C@H](C3=NN=C(N32)C)CC(=O)N)C4=CC=C(C=C4)Cl)C
Procedure, shortened: as §1

[3] = compound: CC1=C2C(=CC=C1)N=C(N(C2=O)C3=CC=CC=C3C)CN4C=NC5=C(N=CN=C54)N
Procedure, shortened: as §1

[4] = compound: Cc1sc2c(c1C)C(c1ccc(Cl)cc1)=N[C@@H](CC(=O)OC(C)(C)C)c1nnc(C)n1-2
Procedure, shortened: as §1

[5] = compound: c1ccc([C@@H]2C[C@H]2NC2CCNCC2)cc1
Procedure, shortened: as §1

Measured: log2 fold change

ASMTL (UniProt O95671)
inactive: [1] -0.041 | [2] -0.008 | [3] 0.023 | [4] 0.073 | [5] 0

ATG4A (UniProt Q8WYN0)
inactive: [1] 0.008 | [2] 0.022 | [3] 0.068 | [4] -0.01 | [5] -0.103

B2M (UniProt P61769)
inactive: [1] 0.044 | [2] -0.035 | [3] 0.012 | [4] -0.174 | [5] -0.027

AURKAIP1 (UniProt Q9NWT8)
inactive: [1] 0.05 | [2] 0.032 | [3] -0.014 | [4] 0.024 | [5] 0.034

ASCC2 (UniProt Q9H1I8)
inactive: [1] 0.181 | [2] 0.063 | [3] -0.027 | [4] -0.019 | [5] 0.076

ATP1B3 (UniProt P54709)
inactive: [1] 0.038 | [2] -0.014 | [3] -0.025 | [4] -0.027 | [5] -0.028

ATG10 (UniProt Q9H0Y0)
inactive: [1] 0.008 | [2] 0 | [3] -0.057 | [4] 0.047 | [5] 0.076

ASCC3 (UniProt Q8N3C0)
inactive: [1] -0.016 | [2] 0.062 | [3] 0.011 | [4] -0.029 | [5] 0

ASRGL1 (UniProt Q7L266)
inactive: [1] -0.008 | [2] -0.013 | [3] 0.007 | [4] -0.032 | [5] 0.02

ATP5PD (UniProt O75947)
inactive: [1] -0.011 | [2] -0.056 | [3] -0.007 | [4] 0.013 | [5] 0.023

ATP6V0A2 (UniProt Q9Y487)
inactive: [1] -0.011 | [2] -0.017 | [3] 0.026 | [4] -0.015 | [5] -0.114

ATP5MPL (UniProt P56378)
inactive: [1] -0.013 | [2] -0.071 | [3] 0.007 | [4] -0.004 | [5] 0.014

ATP13A1 (UniProt Q9HD20)
inactive: [1] 0.006 | [2] -0.001 | [3] 0.079 | [4] 0.064 | [5] 0.03

ATP2A2 (UniProt P16615)
inactive: [1] -0.01 | [2] 0.006 | [3] 0.041 | [4] -0.038 | [5] -0.017

ATP5PB (UniProt P24539)
inactive: [1] -0.055 | [2] -0.006 | [3] -0.014 | [4] 0.032 | [5] 0.015

ATP6V1B1 (UniProt P15313)
inactive: [1] 0.023 | [2] 0.004 | [3] 0.004 | [4] -0.023 | [5] -0.157

ATF2 (UniProt P15336)
inactive: [1] 0.088 | [2] -0.044 | [3] -0.034 | [4] 0.01 | [5] 0.055

ATXN10 (UniProt Q9UBB4)
inactive: [1] -0.002 | [2] 0.001 | [3] 0.01 | [4] -0.015 | [5] 0.038

ATAD3B (UniProt Q5T9A4)
inactive: [1] 0.082 | [2] -0.033 | [3] -0.021 | [4] 0.047 | [5] 0.172

Fetched one by one from the entries so far (2):
ASRGL1 (UniProt Q7L266)
inactive: [1] -0.008 | [2] -0.013 | [3] 0.007 | [4] -0.032 | [5] 0.02

ATP5MPL (UniProt P56378)
inactive: [1] -0.013 | [2] -0.071 | [3] 0.007 | [4] -0.004 | [5] 0.014

Additional records

ASPSCR1 (UniProt Q9BZE9)
inactive: [1] 0.013 | [2] -0.021 | [3] -0.006 | [4] 0.034 | [5] 0.001

ATP13A3 (UniProt Q9H7F0)
inactive: [1] 0.003 | [2] 0.054 | [3] 0.043 | [4] -0.03 | [5] -0.03

AVL9 (UniProt Q8NBF6)
inactive: [1] 0.024 | [2] 0.025 | [3] 0.012 | [4] -0.026 | [5] -0.059

AUH (UniProt Q13825)
inactive: [1] 0.034 | [2] 0 | [3] 0.129 | [4] -0.112 | [5] -0.009

ATP5MC2 isoform 2 (UniProt Q06055)
inactive: [1] -0.009 | [2] 0.02 | [3] 0.096 | [4] -0.036 | [5] -0.118
